These are yes or no findings as the source states them, for the method shown. Binding seen in cells or lysates may run through a third protein. Some results given as binding are weak or reduced against the parent protein; the word gives no strength. Where a sequence is shown, tags or fusion partners need not be part of it.
Target: T1, ∆36Nfs1-His6 (S. cerevisiae) (UniProt P25374)
T1 sequence: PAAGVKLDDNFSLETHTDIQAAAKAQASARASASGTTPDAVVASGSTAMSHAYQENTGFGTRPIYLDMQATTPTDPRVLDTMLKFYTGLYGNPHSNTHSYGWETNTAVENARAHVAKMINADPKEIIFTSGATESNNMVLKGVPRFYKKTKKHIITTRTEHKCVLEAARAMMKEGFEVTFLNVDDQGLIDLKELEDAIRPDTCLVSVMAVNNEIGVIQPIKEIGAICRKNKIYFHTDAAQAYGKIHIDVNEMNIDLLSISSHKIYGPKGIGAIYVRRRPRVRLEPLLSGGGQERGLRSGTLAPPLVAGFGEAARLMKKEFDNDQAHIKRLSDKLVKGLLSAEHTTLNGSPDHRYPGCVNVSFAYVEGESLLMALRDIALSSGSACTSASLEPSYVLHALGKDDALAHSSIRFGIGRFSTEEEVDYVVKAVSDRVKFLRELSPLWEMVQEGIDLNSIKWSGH
Assay: pull-down; co-purification: ∆36Nfs1-His6 and Isd11 co-expressed in E. coli from one plasmid, recovered under native conditions on Ni-NTA superflow agarose; elution 50 mM TrisCl pH 7.5, 0.15 M NaCl, 10% glycerol, 400 mM imidazole

B1: Isd11 (protein, UniProt Q6Q560 1-94)
chain: MPGFTAPTRRQVLSLYKEFIKNANQFNNYNFREYFLSKTRTTFRKNMNQQDPKVLMNLFKEAKNDLGVLKRQSVISQMYTFDRLVVEPLQGRKH
- binding: binds
